The target of this assay is T1, His6-pLASP1-Y171 (His6-LASP1 phosphorylated by ABL kinase) (human) (UniProt Q14847).
T1 sequence (chain, phosphotyrosine at 171): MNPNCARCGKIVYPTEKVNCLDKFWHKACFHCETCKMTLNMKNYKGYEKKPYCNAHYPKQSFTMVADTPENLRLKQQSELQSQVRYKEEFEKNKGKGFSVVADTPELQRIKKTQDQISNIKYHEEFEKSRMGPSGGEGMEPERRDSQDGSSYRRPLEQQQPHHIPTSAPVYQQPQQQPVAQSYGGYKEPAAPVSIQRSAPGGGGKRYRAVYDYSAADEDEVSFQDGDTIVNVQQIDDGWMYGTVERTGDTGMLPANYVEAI
In words: condition: 1 μg GST-tagged protein overlaid on 0.2 μg blotted His6-LASP1 phosphorylated by ABL kinase; far-Western, overlay or dot blot; 0.2 μg His6-LASP1 or His6-LASP1 phosphorylated by ABL kinase blotted on nitrocellulose; overlaid overnight at 4°C with 1 μg GST-tagged proteins; detected with GST antibody; both purified.

By UniProt entry, the sequences of proteins in these tests, tags left out. Where a name states a change or a piece, a line headed by the entry shows the natural chain unless it says otherwise.
UniProt P46109: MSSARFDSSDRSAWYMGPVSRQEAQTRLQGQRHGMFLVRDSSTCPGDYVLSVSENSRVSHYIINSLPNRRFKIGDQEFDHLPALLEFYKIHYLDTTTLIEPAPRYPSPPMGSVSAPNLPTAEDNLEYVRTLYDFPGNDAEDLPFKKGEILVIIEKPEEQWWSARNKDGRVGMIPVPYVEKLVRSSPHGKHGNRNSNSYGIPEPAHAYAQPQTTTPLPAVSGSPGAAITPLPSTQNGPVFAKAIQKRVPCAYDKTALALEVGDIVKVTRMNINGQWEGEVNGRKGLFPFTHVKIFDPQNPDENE

These are yes or no findings as the source states them, for the method shown. Where a sequence is shown, tags or fusion partners need not be part of it.

In publication PMC4170624 one finds binding data, which are given here for one substance.

Regarding “GST-CRKL-R39K (from UniProt P46109 1-303)”, the binding entry is “no binding”.
